The supplement of paper PMC6411743
± gives the standard deviation of the averaged measurements. The list shows a part of the results.

Sequences of proteins named here, by UniProt entry; tags and fusion partners are left off. A change or cut given only in a name is not applied to a line headed by its entry.
UniProt Q96B45: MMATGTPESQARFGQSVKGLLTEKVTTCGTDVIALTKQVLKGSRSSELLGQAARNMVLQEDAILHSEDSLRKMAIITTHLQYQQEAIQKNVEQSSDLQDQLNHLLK
UniProt Q9Y4K1: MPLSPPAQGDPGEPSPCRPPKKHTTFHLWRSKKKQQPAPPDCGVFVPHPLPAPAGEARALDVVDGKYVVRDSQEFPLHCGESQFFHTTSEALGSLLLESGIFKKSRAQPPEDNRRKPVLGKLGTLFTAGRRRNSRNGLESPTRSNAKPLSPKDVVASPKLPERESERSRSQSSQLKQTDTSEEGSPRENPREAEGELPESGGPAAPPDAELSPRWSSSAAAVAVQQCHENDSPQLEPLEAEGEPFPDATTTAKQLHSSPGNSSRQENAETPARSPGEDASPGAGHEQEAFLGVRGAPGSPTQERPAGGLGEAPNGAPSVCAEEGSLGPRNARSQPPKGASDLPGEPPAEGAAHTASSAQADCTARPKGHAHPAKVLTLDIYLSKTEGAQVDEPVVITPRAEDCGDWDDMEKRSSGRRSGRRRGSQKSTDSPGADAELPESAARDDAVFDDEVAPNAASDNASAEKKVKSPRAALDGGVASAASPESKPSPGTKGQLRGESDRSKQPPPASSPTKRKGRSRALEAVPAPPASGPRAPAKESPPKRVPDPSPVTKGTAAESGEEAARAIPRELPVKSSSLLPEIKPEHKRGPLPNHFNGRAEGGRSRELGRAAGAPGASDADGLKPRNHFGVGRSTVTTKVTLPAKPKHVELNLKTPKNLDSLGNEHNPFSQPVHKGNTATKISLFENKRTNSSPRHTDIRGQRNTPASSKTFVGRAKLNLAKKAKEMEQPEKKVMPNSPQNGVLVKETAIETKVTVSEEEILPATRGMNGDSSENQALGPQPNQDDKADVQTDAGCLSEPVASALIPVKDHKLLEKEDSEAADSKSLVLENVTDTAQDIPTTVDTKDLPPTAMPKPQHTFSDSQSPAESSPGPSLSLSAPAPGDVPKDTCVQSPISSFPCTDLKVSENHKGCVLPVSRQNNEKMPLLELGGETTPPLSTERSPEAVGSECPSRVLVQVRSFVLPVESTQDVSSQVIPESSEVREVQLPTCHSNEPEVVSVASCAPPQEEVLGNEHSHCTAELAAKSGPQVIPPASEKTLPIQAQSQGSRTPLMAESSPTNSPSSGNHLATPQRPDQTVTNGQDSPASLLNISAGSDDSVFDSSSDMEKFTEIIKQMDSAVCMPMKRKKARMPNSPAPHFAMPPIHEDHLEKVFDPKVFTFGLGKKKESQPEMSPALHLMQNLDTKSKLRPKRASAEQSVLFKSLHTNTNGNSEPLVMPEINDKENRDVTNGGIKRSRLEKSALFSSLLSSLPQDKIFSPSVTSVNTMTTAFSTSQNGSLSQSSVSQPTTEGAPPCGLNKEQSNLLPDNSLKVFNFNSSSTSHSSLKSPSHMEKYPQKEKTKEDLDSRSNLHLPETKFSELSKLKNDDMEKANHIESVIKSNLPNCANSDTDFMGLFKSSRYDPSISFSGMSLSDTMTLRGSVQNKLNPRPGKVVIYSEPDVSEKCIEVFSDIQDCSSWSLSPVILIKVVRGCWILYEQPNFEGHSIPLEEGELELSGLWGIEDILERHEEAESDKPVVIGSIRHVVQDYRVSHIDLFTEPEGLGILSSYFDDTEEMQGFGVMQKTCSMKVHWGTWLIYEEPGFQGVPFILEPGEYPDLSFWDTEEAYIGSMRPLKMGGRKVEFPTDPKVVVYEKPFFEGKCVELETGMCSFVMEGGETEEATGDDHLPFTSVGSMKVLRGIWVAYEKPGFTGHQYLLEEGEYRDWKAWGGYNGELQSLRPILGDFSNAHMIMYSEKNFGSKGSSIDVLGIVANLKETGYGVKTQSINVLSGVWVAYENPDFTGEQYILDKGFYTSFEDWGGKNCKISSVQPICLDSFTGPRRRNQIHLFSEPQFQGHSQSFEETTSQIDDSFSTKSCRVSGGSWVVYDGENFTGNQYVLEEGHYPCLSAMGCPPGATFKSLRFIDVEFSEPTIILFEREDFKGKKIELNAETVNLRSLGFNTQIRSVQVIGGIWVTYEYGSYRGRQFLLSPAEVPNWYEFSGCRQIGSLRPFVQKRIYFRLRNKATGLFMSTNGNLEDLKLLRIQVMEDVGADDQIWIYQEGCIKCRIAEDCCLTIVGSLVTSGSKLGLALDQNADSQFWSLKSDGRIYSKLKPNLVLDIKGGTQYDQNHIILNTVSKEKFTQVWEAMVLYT
UniProt Q5T7M9: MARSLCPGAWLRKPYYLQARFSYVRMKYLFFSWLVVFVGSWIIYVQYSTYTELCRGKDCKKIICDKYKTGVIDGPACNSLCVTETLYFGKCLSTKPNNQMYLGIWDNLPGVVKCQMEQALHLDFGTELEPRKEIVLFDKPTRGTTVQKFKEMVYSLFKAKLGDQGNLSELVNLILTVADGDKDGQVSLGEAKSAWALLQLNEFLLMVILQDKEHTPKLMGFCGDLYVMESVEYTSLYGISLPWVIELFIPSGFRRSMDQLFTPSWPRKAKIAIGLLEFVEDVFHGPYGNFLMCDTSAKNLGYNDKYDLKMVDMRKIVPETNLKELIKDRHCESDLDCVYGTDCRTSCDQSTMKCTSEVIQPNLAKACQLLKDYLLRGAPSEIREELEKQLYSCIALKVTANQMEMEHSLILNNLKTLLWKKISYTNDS
UniProt Q8WUH1: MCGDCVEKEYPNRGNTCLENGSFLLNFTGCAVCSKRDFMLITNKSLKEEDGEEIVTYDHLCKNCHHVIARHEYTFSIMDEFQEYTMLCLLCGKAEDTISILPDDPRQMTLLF
UniProt I3L1I5, whole entry, looked up: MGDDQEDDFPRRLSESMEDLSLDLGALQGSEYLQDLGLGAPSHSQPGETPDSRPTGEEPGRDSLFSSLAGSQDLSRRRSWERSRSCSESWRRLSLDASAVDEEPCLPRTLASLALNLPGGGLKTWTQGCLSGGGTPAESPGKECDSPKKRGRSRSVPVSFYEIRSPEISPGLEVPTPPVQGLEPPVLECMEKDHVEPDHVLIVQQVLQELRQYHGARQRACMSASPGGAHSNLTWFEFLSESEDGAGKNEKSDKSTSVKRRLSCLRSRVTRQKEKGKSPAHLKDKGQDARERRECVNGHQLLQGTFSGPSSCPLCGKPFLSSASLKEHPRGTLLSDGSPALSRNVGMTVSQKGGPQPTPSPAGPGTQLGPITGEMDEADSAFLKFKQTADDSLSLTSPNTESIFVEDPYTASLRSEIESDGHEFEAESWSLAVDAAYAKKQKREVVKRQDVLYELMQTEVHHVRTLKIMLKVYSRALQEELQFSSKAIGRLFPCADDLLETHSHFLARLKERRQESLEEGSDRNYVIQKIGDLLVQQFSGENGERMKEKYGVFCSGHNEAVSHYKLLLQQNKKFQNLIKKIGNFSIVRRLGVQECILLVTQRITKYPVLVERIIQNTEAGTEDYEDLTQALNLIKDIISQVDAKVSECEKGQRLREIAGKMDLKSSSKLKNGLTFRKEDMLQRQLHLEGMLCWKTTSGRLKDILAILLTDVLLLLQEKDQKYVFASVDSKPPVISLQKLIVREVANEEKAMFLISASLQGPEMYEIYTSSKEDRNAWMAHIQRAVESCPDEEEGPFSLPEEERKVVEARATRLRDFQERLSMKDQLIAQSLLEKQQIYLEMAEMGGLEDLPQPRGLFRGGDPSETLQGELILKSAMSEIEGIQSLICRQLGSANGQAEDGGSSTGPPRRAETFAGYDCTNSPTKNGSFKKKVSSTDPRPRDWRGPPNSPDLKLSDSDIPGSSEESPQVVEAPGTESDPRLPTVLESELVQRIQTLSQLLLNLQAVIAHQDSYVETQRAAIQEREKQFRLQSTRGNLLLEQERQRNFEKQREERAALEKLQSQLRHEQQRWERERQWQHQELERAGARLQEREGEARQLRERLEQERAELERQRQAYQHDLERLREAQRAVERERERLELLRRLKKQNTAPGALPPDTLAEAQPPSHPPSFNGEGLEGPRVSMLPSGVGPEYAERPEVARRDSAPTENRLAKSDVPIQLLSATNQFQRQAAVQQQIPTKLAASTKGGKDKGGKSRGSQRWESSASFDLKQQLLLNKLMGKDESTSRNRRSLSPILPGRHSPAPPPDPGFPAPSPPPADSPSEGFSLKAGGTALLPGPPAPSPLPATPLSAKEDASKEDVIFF
UniProt P0DMV8, whole entry, looked up: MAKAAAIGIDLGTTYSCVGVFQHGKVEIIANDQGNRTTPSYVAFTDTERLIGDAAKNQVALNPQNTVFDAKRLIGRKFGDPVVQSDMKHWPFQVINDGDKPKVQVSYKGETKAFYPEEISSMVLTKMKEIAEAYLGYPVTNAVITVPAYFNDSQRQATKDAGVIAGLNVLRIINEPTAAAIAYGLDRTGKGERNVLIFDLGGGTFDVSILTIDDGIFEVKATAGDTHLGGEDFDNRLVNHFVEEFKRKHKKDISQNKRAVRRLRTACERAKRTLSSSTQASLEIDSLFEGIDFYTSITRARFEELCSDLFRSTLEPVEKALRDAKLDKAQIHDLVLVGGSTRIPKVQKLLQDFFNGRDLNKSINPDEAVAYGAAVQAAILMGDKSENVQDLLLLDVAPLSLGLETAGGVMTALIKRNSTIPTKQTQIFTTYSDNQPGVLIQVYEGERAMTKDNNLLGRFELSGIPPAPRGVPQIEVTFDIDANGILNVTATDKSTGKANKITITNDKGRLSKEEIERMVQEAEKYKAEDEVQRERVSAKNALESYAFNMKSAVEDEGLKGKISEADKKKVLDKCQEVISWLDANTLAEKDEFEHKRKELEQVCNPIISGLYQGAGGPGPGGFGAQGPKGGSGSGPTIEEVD
UniProt Q6NVY1: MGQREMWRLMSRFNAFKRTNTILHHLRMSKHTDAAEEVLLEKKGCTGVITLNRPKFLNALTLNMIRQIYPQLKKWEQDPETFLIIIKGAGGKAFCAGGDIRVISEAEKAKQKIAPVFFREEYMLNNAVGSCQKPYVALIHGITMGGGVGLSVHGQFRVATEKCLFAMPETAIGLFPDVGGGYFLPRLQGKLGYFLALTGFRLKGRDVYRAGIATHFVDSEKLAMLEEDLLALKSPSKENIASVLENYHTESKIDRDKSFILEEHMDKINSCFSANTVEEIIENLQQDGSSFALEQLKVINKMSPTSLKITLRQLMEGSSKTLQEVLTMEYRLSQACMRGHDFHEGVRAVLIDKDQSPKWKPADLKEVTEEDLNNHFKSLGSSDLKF
UniProt Q9NQ55: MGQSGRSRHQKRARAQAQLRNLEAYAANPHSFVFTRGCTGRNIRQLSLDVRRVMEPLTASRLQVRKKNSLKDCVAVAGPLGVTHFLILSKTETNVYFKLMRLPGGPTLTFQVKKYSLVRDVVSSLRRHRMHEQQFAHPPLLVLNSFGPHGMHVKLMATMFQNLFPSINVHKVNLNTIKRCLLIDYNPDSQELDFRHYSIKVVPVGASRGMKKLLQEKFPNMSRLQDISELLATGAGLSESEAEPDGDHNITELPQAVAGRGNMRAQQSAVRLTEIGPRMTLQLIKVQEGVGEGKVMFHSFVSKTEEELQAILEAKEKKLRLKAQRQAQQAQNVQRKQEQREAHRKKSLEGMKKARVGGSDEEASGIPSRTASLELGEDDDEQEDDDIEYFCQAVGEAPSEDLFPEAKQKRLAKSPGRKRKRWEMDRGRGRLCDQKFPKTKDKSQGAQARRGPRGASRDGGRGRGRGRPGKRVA
UniProt Q2M2I8: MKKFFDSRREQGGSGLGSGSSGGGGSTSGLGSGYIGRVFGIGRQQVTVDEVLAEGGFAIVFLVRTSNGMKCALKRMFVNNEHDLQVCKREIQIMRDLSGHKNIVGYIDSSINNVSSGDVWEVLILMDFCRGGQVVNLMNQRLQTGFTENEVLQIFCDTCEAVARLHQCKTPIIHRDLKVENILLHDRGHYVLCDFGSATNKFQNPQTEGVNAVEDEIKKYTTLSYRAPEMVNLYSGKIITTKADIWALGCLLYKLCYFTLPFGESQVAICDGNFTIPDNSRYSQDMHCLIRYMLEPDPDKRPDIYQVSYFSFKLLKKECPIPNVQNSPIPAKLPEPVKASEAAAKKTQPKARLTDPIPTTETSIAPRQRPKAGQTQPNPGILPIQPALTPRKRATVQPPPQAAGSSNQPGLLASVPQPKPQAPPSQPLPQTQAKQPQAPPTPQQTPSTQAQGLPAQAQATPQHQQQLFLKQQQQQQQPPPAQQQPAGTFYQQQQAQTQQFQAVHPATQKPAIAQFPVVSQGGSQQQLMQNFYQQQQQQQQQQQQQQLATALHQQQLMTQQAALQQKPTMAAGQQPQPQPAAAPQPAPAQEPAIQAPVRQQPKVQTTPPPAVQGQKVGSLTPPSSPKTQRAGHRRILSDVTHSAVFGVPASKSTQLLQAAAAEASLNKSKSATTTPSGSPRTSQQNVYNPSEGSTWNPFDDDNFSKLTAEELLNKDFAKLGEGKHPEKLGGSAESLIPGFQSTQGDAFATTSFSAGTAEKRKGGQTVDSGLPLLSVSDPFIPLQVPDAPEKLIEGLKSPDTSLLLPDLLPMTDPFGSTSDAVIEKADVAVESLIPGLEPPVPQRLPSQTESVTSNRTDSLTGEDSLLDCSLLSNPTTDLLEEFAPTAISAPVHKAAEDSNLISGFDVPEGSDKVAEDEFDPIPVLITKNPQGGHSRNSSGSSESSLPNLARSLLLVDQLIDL

compound: Nc1nc2c(ncn2[C@@H]2O[C@H](COP(=O)(O)OP(=O)(O)OP(=O)(O)O)[C@@H](O)[C@H]2O)c(=O)[nH]1 [guanosine triphosphate]; assay: NP40-soluble protein abundance relative to vehicle (solubility fold change) (ratio); higher = more soluble protein in presence of GTP; settings: concentration: 1mM
In short: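 Jurkat crude lysate prepared with a Dounce homogeniser was treated at eight concentrations spanning 0.1 to 10 mM, 10 min at room temperature then 3 min at 37 °C. Solubilisation with 0.8% NP40 and benzonase and ultracentrifugation preceded TMT labelling of the supernatant for LC-MS/MS. Fold change against the detergent-processed vehicle was determined per replicate from vsn-normalised intensities, across three independent experiments.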

Target	NP40-soluble protein abundance
A0A0G2JLB3|A0A0G2JNZ5|P04062 and related entries (UniProt P04062)	0.936 ± 0.086
A0A0B4J1R7|Q96B45 (UniProt Q96B45)	1.02 ± 0.17
A0A0A0MT22|P08575 and related entries (UniProt P08575)	0.927 ± 0.059
A0A0J9YWL0|Q9Y4K1 (UniProt Q9Y4K1)	1.01 ± 0.025
A0A087WZ97|A0A087WZK6|A0A087X2C2|Q5T7M9 (UniProt Q5T7M9)	1.14 ± 0.1
UniProt A4D161 and related entries	1.02 ± 0.2
A0A0A6YYC7|Q96JP5 and related entries (UniProt Q96JP5)	0.975 ± 0.098
A0A0C4DGJ7|Q8WUH1 and related entries (UniProt Q8WUH1)	1.03 ± 0.043
A0A087WY82|Q9Y624 and related entries (UniProt Q9Y624)	0.979 ± 0.038
A0A0A6YYC8|I3L1I5 (UniProt I3L1I5)	1.31 ± 0.22
A0JP02 and related entries (UniProt Q9HAU0)	1.02 ± 0.017
A0A140T9B7|P01889 and related entries (UniProt P30493+P30685+Q04826+D0EV57+P01889+P30460+Q29865+Q6DU44+Q8MH48+P10321+P30486+P30508+Q29718+Q29836+P04440+P04439+Q5SRN5+O19617+Q29963+Q9TNN7)	0.946 ± 0.068
A6NCE7 and related entries (UniProt Q9GZQ8+H3BTL1+A6NCE7)	0.976 ± 0.053
A0A0G2JIW1|P0DMV8 and related entries (UniProt P0DMV9+P0DMV8)	0.968 ± 0.081
A0A087X127|E7EWM3 and related entries (UniProt Q8NF64)	1.06 ± 0.14
A0A0C3SFZ9|M0QZI3 and related entries (UniProt O14526)	1.02 ± 0.0047
A0A0B4J2A0|Q9UHJ6 (UniProt Q9UHJ6)	0.981 ± 0.086
A2IDA3 and related entries (UniProt P29372)	1.1 ± 0.13

Target	NP40-soluble protein abundance
A0A0A0MR05|H3BSZ4 and related entries (UniProt Q9BVC4)	1.09 ± 0.024
A0A087WXI1|Q6NVY1 (UniProt Q6NVY1)	0.909 ± 0.082
A0A0D9SFB1|A0A0D9SFE4|A0A0U1RQP1|Q05193 and related entries (UniProt Q05193)	0.946 ± 0.17
A0A087X1G1|C9IZN5 and related entries (UniProt Q16718)	1.09 ± 0.2
A0A0C4DFQ0|E9PL24 and related entries (UniProt Q5VU43)	1.01 ± 0.032
A0A087X0V4|A8K0B5 and related entries (UniProt Q8IWT0)	1.15 ± 0.16
A0A096LPH6|Q14966 and related entries (UniProt Q14966)	0.993 ± 0.055
A0A0C4DG40|Q8NF91 and related entries (UniProt Q8NF91)	1.03 ± 0.028
A0A0J9YXZ6|Q4VXZ8 and related entries (UniProt Q9NUI1)	1.05 ± 0.013
A0A0A0MTB8|Q8NI36 (UniProt Q8NI36)	1.2 ± 0.064
A0A087X1F9|E9PI02 and related entries (UniProt Q00613)	0.908 ± 0.079
A0A087WXZ7|K7EIX2 and related entries (UniProt Q6AI08)	0.961 ± 0.069
A0A087WXN4|Q96CB8 (UniProt Q96CB8)	0.921 ± 0.036
A0A0A0MQZ6|O95478 (UniProt O95478)	0.943 ± 0.13
A0A0A6YYI3|A0A0B4J1V8|Q9NQ55 and related entries (UniProt Q9NQ55)	0.973 ± 0.095
A0A096LP25|Q2M2I8 and related entries (UniProt Q2M2I8)	1 ± 0.066
A0A0A0MT72|E9PEC4 and related entries (UniProt Q9BSQ5)	0.828 ± 0.089
A0A0J9YYD9	1.1 ± 0.17

same assay, conditions: concentration: 2mM

Target	NP40-soluble protein abundance
A0A0G2JLB3|A0A0G2JNZ5|P04062 and related entries (UniProt P04062)	1.14 ± 0.19
A0A0B4J1R7|Q96B45 (UniProt Q96B45)	1.09 ± 0.11
A0A0A0MT22|P08575 and related entries (UniProt P08575)	0.899 ± 0.05
A0A0J9YWL0|Q9Y4K1 (UniProt Q9Y4K1)	1.02 ± 0.038
A0A087WZ97|A0A087WZK6|A0A087X2C2|Q5T7M9 (UniProt Q5T7M9)	1.07 ± 0.068
UniProt A4D161 and related entries	1 ± 0.12
A0A0A6YYC7|Q96JP5 and related entries (UniProt Q96JP5)	0.956 ± 0.058
A0A0C4DGJ7|Q8WUH1 and related entries (UniProt Q8WUH1)	0.98 ± 0.048
A0A087WY82|Q9Y624 and related entries (UniProt Q9Y624)	0.938 ± 0.059
A0A0A6YYC8|I3L1I5 (UniProt I3L1I5)	1.22 ± 0.12
A0JP02 and related entries (UniProt Q9HAU0)	1.05 ± 0.099
A0A140T9B7|P01889 and related entries (UniProt P30493+P30685+Q04826+D0EV57+P01889+P30460+Q29865+Q6DU44+Q8MH48+P10321+P30486+P30508+Q29718+Q29836+P04440+P04439+Q5SRN5+O19617+Q29963+Q9TNN7)	0.914 ± 0.085
A6NCE7 and related entries (UniProt Q9GZQ8+H3BTL1+A6NCE7)	0.917 ± 0.073
A0A0G2JIW1|P0DMV8 and related entries (UniProt P0DMV9+P0DMV8)	0.948 ± 0.08
A0A087X127|E7EWM3 and related entries (UniProt Q8NF64)	0.9 ± 0.076
A0A0C3SFZ9|M0QZI3 and related entries (UniProt O14526)	1.02 ± 0.016
A0A0B4J2A0|Q9UHJ6 (UniProt Q9UHJ6)	0.981 ± 0.083
A2IDA3 and related entries (UniProt P29372)	1.14 ± 0.16

Target	NP40-soluble protein abundance
A0A0A0MR05|H3BSZ4 and related entries (UniProt Q9BVC4)	1.079 ± 0.0098
A0A087WXI1|Q6NVY1 (UniProt Q6NVY1)	0.875 ± 0.083
A0A0D9SFB1|A0A0D9SFE4|A0A0U1RQP1|Q05193 and related entries (UniProt Q05193)	0.915 ± 0.21
A0A087X1G1|C9IZN5 and related entries (UniProt Q16718)	1.13 ± 0.15
A0A0C4DFQ0|E9PL24 and related entries (UniProt Q5VU43)	1.05 ± 0.042
A0A087X0V4|A8K0B5 and related entries (UniProt Q8IWT0)	0.984 ± 0.073
A0A096LPH6|Q14966 and related entries (UniProt Q14966)	0.998 ± 0.094
A0A0C4DG40|Q8NF91 and related entries (UniProt Q8NF91)	0.996 ± 0.057
A0A0J9YXZ6|Q4VXZ8 and related entries (UniProt Q9NUI1)	1.06 ± 0.024
A0A0A0MTB8|Q8NI36 (UniProt Q8NI36)	1.55 ± 0.056
A0A087X1F9|E9PI02 and related entries (UniProt Q00613)	0.843 ± 0.11
A0A087WXZ7|K7EIX2 and related entries (UniProt Q6AI08)	1.04 ± 0.052
A0A087WXN4|Q96CB8 (UniProt Q96CB8)	0.956 ± 0.068
A0A0A0MQZ6|O95478 (UniProt O95478)	1.09 ± 0.12
A0A0A6YYI3|A0A0B4J1V8|Q9NQ55 and related entries (UniProt Q9NQ55)	1.06 ± 0.041
A0A096LP25|Q2M2I8 and related entries (UniProt Q2M2I8)	0.974 ± 0.099
A0A0A0MT72|E9PEC4 and related entries (UniProt Q9BSQ5)	0.953 ± 0.082
A0A0J9YYD9	1.13 ± 0.23
